According to paper PMC11321995:
No constants are given. Whether binding was seen depends on the method and setting. In cells and extracts the contact can be indirect. Some results given as binding are weak or reduced against the parent protein; the word gives no strength.

Sequences of proteins named here, by UniProt entry; tags and fusion partners are left off.
UniProt P32243: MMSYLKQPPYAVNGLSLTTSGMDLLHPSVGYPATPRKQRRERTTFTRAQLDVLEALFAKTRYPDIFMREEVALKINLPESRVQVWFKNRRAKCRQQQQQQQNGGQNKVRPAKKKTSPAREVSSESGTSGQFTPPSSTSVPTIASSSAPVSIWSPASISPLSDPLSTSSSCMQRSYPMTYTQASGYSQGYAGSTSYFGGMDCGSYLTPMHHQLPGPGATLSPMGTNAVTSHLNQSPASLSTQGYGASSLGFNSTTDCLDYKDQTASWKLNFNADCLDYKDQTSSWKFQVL

Target: orthodenticle homeobox 2 (OTX2), endogenous (human (endogenous in HDMB03)) (UniProt P32243)
Assay: co-IP; endogenous proteins, HDMB03 tumourspheres grown 3 d; lysis in 25 mM Tris pH 7.4, 150 mM NaCl, 1% Triton X-100, 5 mM EDTA; precipitated overnight with 2 μg OTX2 antibody or IgG; immunoblot for LASR complex members

- binding: binds
B1: heterogeneous nuclear ribonucleoprotein M (HNRNPM) (protein, UniProt P52272 1-730)
chain: MAAGVEAAAEVAATEIKMEEESGAPGVPSGNGAPGPKGEGERPAQNEKRKEKNIKRGGNRFEPYANPTKRYRAFITNIPFDVKWQSLKDLVKEKVGEVTYVELLMDAEGKSRGCAVVEFKMEESMKKAAEVLNKHSLSGRPLKVKEDPDGEHARRAMQKVMATTGGMGMGPGGPGMITIPPSILNNPNIPNEIIHALQAGRLGSTVFVANLDYKVGWKKLKEVFSMAGVVVRADILEDKDGKSRGIGTVTFEQSIEAVQAISMFNGQLLFDRPMHVKMDERALPKGDFFPPERPQQLPHGLGGIGMGLGPGGQPIDANHLNKGIGMGNIGPAGMGMEGIGFGINKMGGMEGPFGGGMENMGRFGSGMNMGRINEILSNALKRGEIIAKQGGGGGGGSVPGIERMGPGIDRLGGAGMERMGAGLGHGMDRVGSEIERMGLVMDRMGSVERMGSGIERMGPLGLDHMASSIERMGQTMERIGSGVERMGAGMGFGLERMAAPIDRVGQTIERMGSGVERMGPAIERMGLSMERMVPAGMGAGLERMGPVMDRMATGLERMGANNLERMGLERMGANSLERMGLERMGANSLERMGPAMGPALGAGIERMGLAMGGGGGASFDRAIEMERGNFGGSFAGSFGGAGGHAPGVARKACQIFVRNLPFDFTWKMLKDKFNECGHVLYADIKMENGKSKGCGVVKFESPEVAERACRMMNGMKLSGREIDVRIDRNA
